Experimental findings from publication PMC6695400, “Diversity of oligomerization in Drosophila semaphorins suggests a mechanism of functional fine-tuning” (Nature Communications, 2019) are described below.

The assay addresses Drosophila melanogaster semaphorin-1a full-length ectodomain (Sema1a_(ecto)) (Drosophila melanogaster). The assay can be described thus: pull-down; HEK293T co-transfected with a His6-tagged and a TwinStrep-tagged semaphorin; conditioned medium 5 days post transfection; two-step affinity chromatography (HisTrap, then StrepTactin); western blot and SDS-PAGE of flow-through and eluate. In general terms: In western blotting, separated proteins are transferred to a membrane and probed.

No constants are given. Whether binding was seen depends on the method and setting. Binding seen in cells or lysates may run through a third protein. Tags and fused reporters may be left off the sequences shown.

B1: Drosophila melanogaster full-length secreted semaphorin-2a (Sema2a_(full)) (ligand, UniProt Q24323 26-724, looked up)
chain: DYENTWNFYYERPCCTGNDQGNNNYGKHGADHVREFNCGKLYYRTFHMNEDRDTLYVGAMDRVFRVNLQNISSSNCNRDVINLEPTRDDVVSCVSKGKSQIFDCKNHVRVIQSMDQGDRLYVCGTNAHNPKDYVIYANLTHLPRSEYVIGVGLGIAKCPYDPLDNSTAIYVENGNPGGLPGLYSGTNAEFTKADTVIFRTDLYNTSAKRLEYKFKRTLKYDSKWLDKPNFVGSFDIGEYVYFFFRETAVEYINCGKAVYSRIARVCKKDVGGKNLLAHNWATYLKARLNCSISGEFPFYFNEIQSVYQLPSDKSRFFATFTTSTNGLIGSAVCSFHINEIQAAFNGKFKEQSSSNSAWLPVLNSRVPEPRPGTCVNDTSNLPDTVLNFIRSHPLMDKAVNHEHNNPVYYKRDLVFTKLVVDKIRIDILNQEYIVYYVGTNLGRIYKIVQYYRNGESLSKLLDIFEVAPNEAIQVMEISQTRKSLYIGTDHRIKQIDLAMCNRRYDNCFRCVRDPYCGWDKEANTCRPYELDLLQDVANETSDICDSSVLKKKIVVTYGQSVHLGCFVKIPEVLKNEQVTWYHHSKDKGRYEIRYSPTKYIETTERGLVVVSVNEADGGRYDCHLGGSLLCSYNITVDAHRCTPPNKSNDYQKIYSDWCHEFEKYKTAMKSWEKKQAQCSTRQNFSSNQHPNEIFRKPNV
notes: Semaphorin-2a, Drosophila melanogaster, residues 26D-724V; Disulfide-linked dimer in solution; source: HEK293T (37 °C), transient transfection, purified (HisTrap, SEC)
B1: the binding entry is on record as “no binding”.
